For series [1], the system named is open-chest, barbital-anesthetized dogs. In words: Protocol II (preconditioning): four 5-minute occlusion/reperfusion cycles before 60-minute occlusion and 3 hours reperfusion in dogs. The series is classed as in vivo, dog. The method, then: Preconditioning was elicited by four 5-minute occlusion/5-minute reperfusion cycles produced 10 minutes before the 60-minute occlusion.

The test system is the same in series [2]. In words: Protocol I (pretreatment): 60 minutes of coronary artery occlusion and 3 hours of reperfusion in dogs.

The values below come from patent publication US20050203065A1, “Method of treating ischemia reperfusion injury using adenosine receptor antagonists” (priority 2002, published 2005).

For `CCCn1c(=O)c2[nH]c([C@H]3C[C@@H]4C[C@H]3[C@H]3O[C@@H]43)nc2n(CCC)c1=O` [BG 9719, 8-(2S-5,6-exo-epoxy-endo-norborn-2-yl)-1,3-dipropyl-3,7-dihydro-purine-2,6-dione], in series [1] (occ30), the “Regional myocardial blood flow, ischemic-reperfused region, endo (endocardium)” value was 0.06 ± 0.01 ml/min/gm; the “Regional myocardial blood flow, ischemic-reperfused region, epi (epicardium)” value was 0.14 ± 0.04 ml/min/gm; the “Regional myocardial blood flow, ischemic-reperfused region, mid (midmyocardium)” value is 0.08 ± 0.02 ml/min/gm; the “Regional myocardial blood flow, ischemic-reperfused region, transmural” value is listed as 0.09 ± 0.02 ml/min/gm. In series [1] (occ30), the “Regional myocardial blood flow, non-ischemic region, endo (endocardium)” value came out at 0.86 ± 0.16 ml/min/gm; the “Regional myocardial blood flow, non-ischemic region, epi (epicardium)” value is recorded as 0.91 ± 0.22 ml/min/gm; the “Regional myocardial blood flow, non-ischemic region, mid (midmyocardium)” value is recorded as 0.92 ± 0.14 ml/min/gm; the “Regional myocardial blood flow, non-ischemic region, transmural” value came out at 0.90 ± 0.13 ml/min/gm. In series [1] (rep3 hr), the “Regional myocardial blood flow, ischemic-reperfused region, endo (endocardium)” value was determined as 0.64 ± 0.10 ml/min/gm; the “Regional myocardial blood flow, ischemic-reperfused region, epi (epicardium)” value turned out to be 0.63 ± 0.12 ml/min/gm; the “Regional myocardial blood flow, ischemic-reperfused region, mid (midmyocardium)” value is 0.43 ± 0.04 ml/min/gm; the “Regional myocardial blood flow, ischemic-reperfused region, transmural” value amounted to 0.56 ± 0.10 ml/min/gm. In series [1] (rep3 hr), the “Regional myocardial blood flow, non-ischemic region, endo (endocardium)” value amounted to 0.88 ± 0.20 ml/min/gm; the “Regional myocardial blood flow, non-ischemic region, epi (epicardium)” value is 0.83 ± 0.13 ml/min/gm; the “Regional myocardial blood flow, non-ischemic region, mid (midmyocardium)” value turned out to be 0.87 ± 0.11 ml/min/gm; the “Regional myocardial blood flow, non-ischemic region, transmural” value is 0.86 ± 0.12 ml/min/gm.
As to `CCCn1c(=O)c2[nH]c(C34CCC(CCC(=O)O)(CC3)CC4)nc2n(CCC)c1=O` [BG 9928, 3-[4-(2,6-dioxo-1,3-dipropyl-2,3,6,7-tetrahydro-1H-purin-8-yl)-bicyclo[2.2.2]oct-1-yl]-propionic acid], in series [1] (occ30), the “Regional myocardial blood flow, ischemic-reperfused region, endo (endocardium)” value amounted to 0.03 ± 0.01 ml/min/gm; the “Regional myocardial blood flow, ischemic-reperfused region, epi (epicardium)” value was 0.12 ± 0.04 ml/min/gm; the “Regional myocardial blood flow, ischemic-reperfused region, mid (midmyocardium)” value was 0.06 ± 0.01 ml/min/gm; the “Regional myocardial blood flow, ischemic-reperfused region, transmural” value amounted to 0.07 ± 0.01 ml/min/gm. In series [1] (occ30), the “Regional myocardial blood flow, non-ischemic region, endo (endocardium)” value was determined as 0.51 ± 0.12 ml/min/gm; the “Regional myocardial blood flow, non-ischemic region, epi (epicardium)” value is reported as 0.48 ± 0.14 ml/min/gm; the “Regional myocardial blood flow, non-ischemic region, mid (midmyocardium)” value is 0.49 ± 0.14 ml/min/gm; the “Regional myocardial blood flow, non-ischemic region, transmural” value is 0.49 ± 0.13 ml/min/gm. For the same compound, in series [1] (rep3 hr), the “Regional myocardial blood flow, ischemic-reperfused region, endo (endocardium)” value turned out to be 0.72 ± 0.30 ml/min/gm; the “Regional myocardial blood flow, ischemic-reperfused region, epi (epicardium)” value came out at 0.45 ± 0.13 ml/min/gm; the “Regional myocardial blood flow, ischemic-reperfused region, mid (midmyocardium)” value was 0.31 ± 0.10 ml/min/gm; the “Regional myocardial blood flow, ischemic-reperfused region, transmural” value came to 0.49 ± 0.14 ml/min/gm. In series [1] (rep3 hr), the “Regional myocardial blood flow, non-ischemic region, endo (endocardium)” value is reported as 0.56 ± 0.14 ml/min/gm; the “Regional myocardial blood flow, non-ischemic region, epi (epicardium)” value is 0.45 ± 0.06 ml/min/gm; the “Regional myocardial blood flow, non-ischemic region, mid (midmyocardium)” value is recorded as 0.47 ± 0.12 ml/min/gm; the “Regional myocardial blood flow, non-ischemic region, transmural” value worked out at 0.50 ± 0.13 ml/min/gm.
In the case of `CCCn1c(=O)c2[nH]c(C3CCCC3)nc2n(CCC)c1=O` [CPX, 8-Cyclopentyl-1,3-dipropyl-3,7-dihydro-purine-2,6-dione], in series [1] (occ30), the “Regional myocardial blood flow, ischemic-reperfused region, endo (endocardium)” value is given as 0.04 ± 0.01 ml/min/gm; the “Regional myocardial blood flow, ischemic-reperfused region, epi (epicardium)” value worked out at 0.07 ± 0.03 ml/min/gm; the “Regional myocardial blood flow, ischemic-reperfused region, mid (midmyocardium)” value is given as 0.05 ± 0.01 ml/min/gm; the “Regional myocardial blood flow, ischemic-reperfused region, transmural” value was found to be 0.06 ± 0.02 ml/min/gm. In addition, in series [1] (occ30), the “Regional myocardial blood flow, non-ischemic region, endo (endocardium)” value is listed as 0.73 ± 0.22 ml/min/gm; the “Regional myocardial blood flow, non-ischemic region, epi (epicardium)” value came to 0.97 ± 0.20 ml/min/gm; the “Regional myocardial blood flow, non-ischemic region, mid (midmyocardium)” value is 0.78 ± 0.12 ml/min/gm; the “Regional myocardial blood flow, non-ischemic region, transmural” value is recorded as 0.83 ± 0.20 ml/min/gm. Besides, in series [1] (rep3 hr), the “Regional myocardial blood flow, ischemic-reperfused region, endo (endocardium)” value was 0.68 ± 0.12 ml/min/gm; the “Regional myocardial blood flow, ischemic-reperfused region, epi (epicardium)” value is given as 0.62 ± 0.12 ml/min/gm; the “Regional myocardial blood flow, ischemic-reperfused region, mid (midmyocardium)” value is reported as 0.54 ± 0.11 ml/min/gm; the “Regional myocardial blood flow, ischemic-reperfused region, transmural” value is recorded as 0.61 ± 0.10 ml/min/gm. In series [1] (rep3 hr), the “Regional myocardial blood flow, non-ischemic region, endo (endocardium)” value amounted to 0.81 ± 0.15 ml/min/gm; the “Regional myocardial blood flow, non-ischemic region, epi (epicardium)” value is on record as 0.85 ± 0.12 ml/min/gm; the “Regional myocardial blood flow, non-ischemic region, mid (midmyocardium)” value stood at 0.76 ± 0.12 ml/min/gm; the “Regional myocardial blood flow, non-ischemic region, transmural” value is 0.81 ± 0.13 ml/min/gm. In series [2] (occ30), the “Regional myocardial blood flow, ischemic-reperfused region, endo (endocardium)” value amounted to 0.05 ± 0.01 ml/min/gm; the “Regional myocardial blood flow, ischemic-reperfused region, epi (epicardium)” value is listed as 0.15 ± 0.04 ml/min/gm; the “Regional myocardial blood flow, ischemic-reperfused region, mid (midmyocardium)” value is given as 0.08 ± 0.02 ml/min/gm; the “Regional myocardial blood flow, ischemic-reperfused region, transmural” value came to 0.09 ± 0.02 ml/min/gm. Also, in series [2] (occ30), the “Regional myocardial blood flow, non-ischemic region, endo (endocardium)” value was determined as 0.54 ± 0.04 ml/min/gm; the “Regional myocardial blood flow, non-ischemic region, epi (epicardium)” value came to 0.60 ± 0.08 ml/min/gm; the “Regional myocardial blood flow, non-ischemic region, mid (midmyocardium)” value worked out at 0.66 ± 0.08 ml/min/gm; the “Regional myocardial blood flow, non-ischemic region, transmural” value is reported as 0.60 ± 0.06 ml/min/gm. Also, in series [2] (rep3 hr), the “Regional myocardial blood flow, ischemic-reperfused region, endo (endocardium)” value was 0.90 ± 0.16 ml/min/gm; the “Regional myocardial blood flow, ischemic-reperfused region, epi (epicardium)” value is 0.48 ± 0.06 ml/min/gm; the “Regional myocardial blood flow, ischemic-reperfused region, mid (midmyocardium)” value was found to be 0.49 ± 0.04 ml/min/gm; the “Regional myocardial blood flow, ischemic-reperfused region, transmural” value stood at 0.62 ± 0.06 ml/min/gm. In addition, in series [2] (rep3 hr), the “Regional myocardial blood flow, non-ischemic region, endo (endocardium)” value is given as 0.61 ± 0.06 ml/min/gm; the “Regional myocardial blood flow, non-ischemic region, epi (epicardium)” value worked out at 0.66 ± 0.07 ml/min/gm; the “Regional myocardial blood flow, non-ischemic region, mid (midmyocardium)” value is listed as 0.64 ± 0.07 ml/min/gm; the “Regional myocardial blood flow, non-ischemic region, transmural” value amounted to 0.64 ± 0.06 ml/min/gm.
